1 molecule from paper PMC9338958 can be followed below.

Chains of the proteins cited; added tags and fusions are not shown.
UniProt P35222: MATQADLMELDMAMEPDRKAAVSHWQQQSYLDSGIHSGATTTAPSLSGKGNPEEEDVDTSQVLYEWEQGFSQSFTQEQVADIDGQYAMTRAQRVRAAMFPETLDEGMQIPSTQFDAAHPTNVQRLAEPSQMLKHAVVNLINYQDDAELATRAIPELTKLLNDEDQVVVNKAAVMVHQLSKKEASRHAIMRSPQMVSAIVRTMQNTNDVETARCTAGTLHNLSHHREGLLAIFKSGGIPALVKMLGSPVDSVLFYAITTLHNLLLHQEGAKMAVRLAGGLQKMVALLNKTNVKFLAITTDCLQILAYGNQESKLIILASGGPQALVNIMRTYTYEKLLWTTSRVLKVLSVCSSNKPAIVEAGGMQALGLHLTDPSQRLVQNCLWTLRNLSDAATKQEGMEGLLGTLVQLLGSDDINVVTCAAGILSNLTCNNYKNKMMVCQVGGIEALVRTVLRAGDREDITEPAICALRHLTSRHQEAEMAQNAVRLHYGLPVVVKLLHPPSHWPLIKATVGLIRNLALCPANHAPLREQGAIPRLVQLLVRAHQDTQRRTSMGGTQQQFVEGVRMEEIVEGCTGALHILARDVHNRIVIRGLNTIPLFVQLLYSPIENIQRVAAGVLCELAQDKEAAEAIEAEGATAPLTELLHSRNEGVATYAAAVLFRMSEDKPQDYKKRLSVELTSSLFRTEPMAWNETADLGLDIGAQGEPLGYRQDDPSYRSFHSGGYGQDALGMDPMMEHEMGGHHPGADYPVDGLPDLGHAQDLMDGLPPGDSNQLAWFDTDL

This assay concerns the target β-catenin (UniProt P35222). The assay is described as follows: co-IP; exogenous Co-IP; mentioned only in the discussion, no figure and no conditions given.

These are yes or no findings as the source states them, for the method shown. Binding seen in cells or lysates may run through a third protein.

B1: Motile sperm domain-containing protein 2 (MOSPD2) (protein, UniProt Q8NHP6 1-518)
chain: MAENHAQNKAKLISETRRRFEAEYVTDKSDKYDARDVERLQQDDNWVESYLSWRHNIVDETLKMLDESFQWRKEISVNDLNESSIPRWLLEIGVIYLHGYDKEGNKLFWIRVKYHVKDQKTILDKKKLIAFWLERYAKRENGKPVTVMFDLSETGINSIDMDFVRFIINCFKVYYPKYLSKIVIFDMPWLMNAAFKIVKTWLGPEAVSLLKFTSKNEVQDYVSVEYLPPHMGGTDPFKYSYPPLVDDDFQTPLCENGPITSEDETSSKEDIESDGKETLETISNEEQTPLLKKINPTESTSKAEENEKVDSKVKAFKKPLSVFKGPLLHISPAEELYFGSTESGEKKTLIVLTNVTKNIVAFKVRTTAPEKYRVKPSNSSCDPGASVDIVVSPHGGLTVSAQDRFLIMAAEMEQSSGTGPAELTQFWKEVPRNKVMEHRLRCHTVESSKPNTLTLKDNAFNMSDKTSEDICLQLSRLLESNRKLEDQVQRCIWFQQLLLSLTMLLLAFVTSFFYLLYS
Consider B1, for which the binding result was “no binding”.
